These are yes or no findings as the source states them, for the method shown. Some binding calls cover weakened binding; strength is not graded here.

This assay has as its target T1, Subtilase JP170 (Bacillus sp. JP170).
T1 sequence: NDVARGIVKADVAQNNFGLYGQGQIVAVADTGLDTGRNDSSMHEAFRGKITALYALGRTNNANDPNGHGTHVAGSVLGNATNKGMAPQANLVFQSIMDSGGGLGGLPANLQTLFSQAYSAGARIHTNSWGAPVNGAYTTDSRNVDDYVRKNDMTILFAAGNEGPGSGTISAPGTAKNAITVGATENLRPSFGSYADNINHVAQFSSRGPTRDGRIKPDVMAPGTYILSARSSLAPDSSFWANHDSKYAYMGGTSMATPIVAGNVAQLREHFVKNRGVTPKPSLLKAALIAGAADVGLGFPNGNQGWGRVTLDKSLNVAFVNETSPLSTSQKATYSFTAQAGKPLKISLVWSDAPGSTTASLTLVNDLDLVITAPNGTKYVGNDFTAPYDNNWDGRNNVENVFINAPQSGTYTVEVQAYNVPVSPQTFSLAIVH
Description: X-ray crystal structure of the complex.

B1: CI2 inhibitor (protein, UniProt P01053 2-84, looked up)
chain: SSVEKKPEGVNTGAGDRHNLKTEWPELVGKSVEEAKKVILQDKPEAQIIVLPVGTIVTMEYRIDRVRLFVDKLDNIAQVPRVG
Turning to B1, the binding result is “binds”.
